Reference: US20140056890A1 (ONCEMED PHARMACEUTICALS, published 2014)
These are yes or no findings as the source states them, for the method shown. Binding seen in cells or lysates may run through a third protein. A yes stands for co-enrichment or nearness to the bait. Other partners may have been found.

Biological target: FLAG-tagged full-length JAM2 (human)
Assay: anti-FLAG co-IP from HEK-293T transfected with FLAG-tagged full-length JAM2, mass spectrometry

B1: endogenous JAM3 (receptor)
chain: VNLKSSNRTPVVQEFESVELSCIITDSQTSDPRIEWKKIQDEQTTYVFFDNKIQGDLAGRAEILGKTSLKIWNVTRRDSALYRCEVVARNDRKEIDEIVIELTVQVKPVTPVCRVPKAVPVGKMATLHCQESEGHPRPHYSWYRNDVPLPTDSRANPRFRNSSFHLNSETGTLVFTAVHKDDSGQYYCIASNDAGSARCEEQEMEVYDLNIGGIIGGVLVVLAVLALITLGICCAYRRGYFINNKQDGESYKNPGKPDGVNYIRTDEEGDFRHKSSFVI
- binding: binds
